From paper PMC11067542

Chains of the proteins cited; added tags and fusions are not shown. Lines headed by an entry give the natural chain unless they say otherwise; changes in a name come on top.
UniProt Q96P20: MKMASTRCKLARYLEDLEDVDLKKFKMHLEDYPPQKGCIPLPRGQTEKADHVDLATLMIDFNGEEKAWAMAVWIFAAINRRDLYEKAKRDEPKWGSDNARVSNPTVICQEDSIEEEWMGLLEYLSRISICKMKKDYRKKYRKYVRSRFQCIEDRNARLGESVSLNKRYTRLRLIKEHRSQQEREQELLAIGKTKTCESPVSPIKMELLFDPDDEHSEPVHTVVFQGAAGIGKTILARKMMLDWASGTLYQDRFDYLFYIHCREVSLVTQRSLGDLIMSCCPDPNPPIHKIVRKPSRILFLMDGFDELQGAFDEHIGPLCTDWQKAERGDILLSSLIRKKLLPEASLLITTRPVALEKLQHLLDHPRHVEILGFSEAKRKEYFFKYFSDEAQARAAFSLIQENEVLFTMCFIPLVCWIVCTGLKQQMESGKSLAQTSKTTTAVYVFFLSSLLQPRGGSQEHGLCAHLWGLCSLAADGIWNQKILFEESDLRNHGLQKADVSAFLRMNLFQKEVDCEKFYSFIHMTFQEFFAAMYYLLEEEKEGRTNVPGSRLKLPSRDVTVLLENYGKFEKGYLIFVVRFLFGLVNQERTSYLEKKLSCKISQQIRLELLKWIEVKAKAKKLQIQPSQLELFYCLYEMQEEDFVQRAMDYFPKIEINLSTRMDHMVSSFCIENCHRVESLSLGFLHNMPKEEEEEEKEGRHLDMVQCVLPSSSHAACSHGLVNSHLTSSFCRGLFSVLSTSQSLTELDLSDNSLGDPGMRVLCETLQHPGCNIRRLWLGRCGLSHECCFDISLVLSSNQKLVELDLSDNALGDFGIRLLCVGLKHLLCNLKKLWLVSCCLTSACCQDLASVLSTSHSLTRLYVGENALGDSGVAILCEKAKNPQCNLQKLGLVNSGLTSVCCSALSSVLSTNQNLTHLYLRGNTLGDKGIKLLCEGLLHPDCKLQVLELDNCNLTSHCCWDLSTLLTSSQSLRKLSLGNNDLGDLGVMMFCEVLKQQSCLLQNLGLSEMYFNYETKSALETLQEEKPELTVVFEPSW
UniProt P68104: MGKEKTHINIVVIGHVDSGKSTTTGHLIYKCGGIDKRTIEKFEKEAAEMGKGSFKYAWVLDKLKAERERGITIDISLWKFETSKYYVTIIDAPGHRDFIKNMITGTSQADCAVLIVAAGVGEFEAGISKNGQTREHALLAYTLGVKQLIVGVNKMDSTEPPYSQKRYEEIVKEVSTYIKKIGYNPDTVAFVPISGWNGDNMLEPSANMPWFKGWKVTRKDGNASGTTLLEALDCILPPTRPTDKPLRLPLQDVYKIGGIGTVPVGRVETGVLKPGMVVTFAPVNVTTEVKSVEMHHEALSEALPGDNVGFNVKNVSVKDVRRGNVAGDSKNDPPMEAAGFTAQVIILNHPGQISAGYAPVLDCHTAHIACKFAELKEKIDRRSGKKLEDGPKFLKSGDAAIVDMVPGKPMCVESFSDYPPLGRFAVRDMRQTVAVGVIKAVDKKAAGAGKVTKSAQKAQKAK
UniProt Q05639: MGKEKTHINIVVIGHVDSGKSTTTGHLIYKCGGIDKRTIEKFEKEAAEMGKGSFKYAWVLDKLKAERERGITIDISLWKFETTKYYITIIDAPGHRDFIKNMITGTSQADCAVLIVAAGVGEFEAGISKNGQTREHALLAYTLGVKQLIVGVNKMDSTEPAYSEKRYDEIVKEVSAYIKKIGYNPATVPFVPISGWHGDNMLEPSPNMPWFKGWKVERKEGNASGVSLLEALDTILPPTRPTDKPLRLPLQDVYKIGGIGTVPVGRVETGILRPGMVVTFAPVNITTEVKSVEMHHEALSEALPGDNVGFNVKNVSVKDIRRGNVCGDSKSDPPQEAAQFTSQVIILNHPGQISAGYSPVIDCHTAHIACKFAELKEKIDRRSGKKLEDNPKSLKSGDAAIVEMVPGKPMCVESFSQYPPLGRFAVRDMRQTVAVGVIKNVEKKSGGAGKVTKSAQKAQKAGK
UniProt P0DMV8: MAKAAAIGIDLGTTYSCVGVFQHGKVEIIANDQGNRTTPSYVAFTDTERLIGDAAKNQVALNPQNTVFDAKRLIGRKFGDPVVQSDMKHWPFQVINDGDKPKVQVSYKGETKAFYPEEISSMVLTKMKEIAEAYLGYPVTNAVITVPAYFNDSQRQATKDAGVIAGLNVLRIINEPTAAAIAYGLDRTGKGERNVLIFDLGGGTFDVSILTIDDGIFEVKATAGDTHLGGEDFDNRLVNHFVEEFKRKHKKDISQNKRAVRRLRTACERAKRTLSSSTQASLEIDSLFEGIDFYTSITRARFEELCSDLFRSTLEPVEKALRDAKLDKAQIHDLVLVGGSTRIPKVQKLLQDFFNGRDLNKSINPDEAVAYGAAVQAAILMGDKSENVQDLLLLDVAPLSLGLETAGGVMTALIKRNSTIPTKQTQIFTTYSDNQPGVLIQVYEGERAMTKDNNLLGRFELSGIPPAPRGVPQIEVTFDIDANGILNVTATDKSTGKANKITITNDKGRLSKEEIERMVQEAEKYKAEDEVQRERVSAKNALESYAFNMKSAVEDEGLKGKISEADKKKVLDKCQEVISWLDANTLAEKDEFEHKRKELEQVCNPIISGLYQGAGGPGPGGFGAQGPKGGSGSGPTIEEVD
UniProt P31943: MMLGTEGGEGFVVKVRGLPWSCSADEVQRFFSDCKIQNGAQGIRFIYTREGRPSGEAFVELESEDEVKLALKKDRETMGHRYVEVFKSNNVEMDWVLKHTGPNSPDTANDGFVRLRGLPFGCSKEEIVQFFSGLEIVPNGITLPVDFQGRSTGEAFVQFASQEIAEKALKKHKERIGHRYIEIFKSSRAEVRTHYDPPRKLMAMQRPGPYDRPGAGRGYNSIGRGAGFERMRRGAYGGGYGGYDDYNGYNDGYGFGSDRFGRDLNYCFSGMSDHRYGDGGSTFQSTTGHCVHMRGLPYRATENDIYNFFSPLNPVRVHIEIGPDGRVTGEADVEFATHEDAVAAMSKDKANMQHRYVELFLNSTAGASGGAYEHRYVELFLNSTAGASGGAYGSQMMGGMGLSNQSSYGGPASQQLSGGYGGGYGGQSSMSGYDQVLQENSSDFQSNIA
UniProt P04264: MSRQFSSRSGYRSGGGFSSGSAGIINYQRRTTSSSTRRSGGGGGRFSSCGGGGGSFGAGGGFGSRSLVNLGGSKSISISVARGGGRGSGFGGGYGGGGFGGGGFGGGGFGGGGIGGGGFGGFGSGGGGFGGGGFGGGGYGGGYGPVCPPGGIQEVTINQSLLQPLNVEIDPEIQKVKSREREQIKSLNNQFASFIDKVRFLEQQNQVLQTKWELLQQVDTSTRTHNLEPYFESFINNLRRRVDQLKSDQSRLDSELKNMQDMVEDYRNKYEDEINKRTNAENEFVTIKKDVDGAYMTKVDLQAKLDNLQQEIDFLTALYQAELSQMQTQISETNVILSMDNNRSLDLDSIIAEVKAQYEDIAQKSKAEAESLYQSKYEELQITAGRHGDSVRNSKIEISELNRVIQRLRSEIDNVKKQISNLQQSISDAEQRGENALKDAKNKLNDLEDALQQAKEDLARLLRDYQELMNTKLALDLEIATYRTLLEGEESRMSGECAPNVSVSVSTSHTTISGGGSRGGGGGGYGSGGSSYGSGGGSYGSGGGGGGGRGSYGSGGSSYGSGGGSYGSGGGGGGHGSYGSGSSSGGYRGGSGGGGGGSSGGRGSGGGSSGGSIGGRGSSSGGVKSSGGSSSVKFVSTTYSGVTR
UniProt P35908: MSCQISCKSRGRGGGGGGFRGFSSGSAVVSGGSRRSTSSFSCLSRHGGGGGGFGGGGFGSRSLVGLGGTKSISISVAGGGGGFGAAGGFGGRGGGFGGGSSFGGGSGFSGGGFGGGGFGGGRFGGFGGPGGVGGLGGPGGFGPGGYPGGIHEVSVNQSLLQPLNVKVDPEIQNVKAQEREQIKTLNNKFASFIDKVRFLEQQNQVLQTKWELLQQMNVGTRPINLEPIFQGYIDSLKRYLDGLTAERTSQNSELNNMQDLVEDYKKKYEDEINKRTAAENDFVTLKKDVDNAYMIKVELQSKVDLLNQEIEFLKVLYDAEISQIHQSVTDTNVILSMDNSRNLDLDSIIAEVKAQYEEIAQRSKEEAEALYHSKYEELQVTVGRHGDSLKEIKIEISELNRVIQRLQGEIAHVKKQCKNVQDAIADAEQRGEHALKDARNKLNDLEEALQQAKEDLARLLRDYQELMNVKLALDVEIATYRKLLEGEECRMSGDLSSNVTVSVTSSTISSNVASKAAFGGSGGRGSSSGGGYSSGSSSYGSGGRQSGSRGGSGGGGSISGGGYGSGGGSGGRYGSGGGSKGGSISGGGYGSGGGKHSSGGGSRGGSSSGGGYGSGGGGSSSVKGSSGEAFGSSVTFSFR
UniProt P13647: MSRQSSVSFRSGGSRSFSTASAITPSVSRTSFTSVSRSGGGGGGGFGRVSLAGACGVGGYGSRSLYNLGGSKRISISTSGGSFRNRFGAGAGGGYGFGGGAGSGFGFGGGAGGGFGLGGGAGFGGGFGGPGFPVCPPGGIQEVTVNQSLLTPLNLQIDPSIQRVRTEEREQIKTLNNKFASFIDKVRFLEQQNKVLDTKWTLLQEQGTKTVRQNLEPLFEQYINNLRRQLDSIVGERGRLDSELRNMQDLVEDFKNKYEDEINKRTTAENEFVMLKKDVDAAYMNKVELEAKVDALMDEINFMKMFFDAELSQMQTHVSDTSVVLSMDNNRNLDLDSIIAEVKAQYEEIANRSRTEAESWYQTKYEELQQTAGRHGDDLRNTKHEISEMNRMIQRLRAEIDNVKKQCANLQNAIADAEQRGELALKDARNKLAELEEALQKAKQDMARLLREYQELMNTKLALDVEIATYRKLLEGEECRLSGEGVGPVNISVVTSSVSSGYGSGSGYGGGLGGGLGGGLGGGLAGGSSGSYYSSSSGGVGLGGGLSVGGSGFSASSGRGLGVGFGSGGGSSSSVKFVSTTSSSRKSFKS
UniProt Q5VTE0: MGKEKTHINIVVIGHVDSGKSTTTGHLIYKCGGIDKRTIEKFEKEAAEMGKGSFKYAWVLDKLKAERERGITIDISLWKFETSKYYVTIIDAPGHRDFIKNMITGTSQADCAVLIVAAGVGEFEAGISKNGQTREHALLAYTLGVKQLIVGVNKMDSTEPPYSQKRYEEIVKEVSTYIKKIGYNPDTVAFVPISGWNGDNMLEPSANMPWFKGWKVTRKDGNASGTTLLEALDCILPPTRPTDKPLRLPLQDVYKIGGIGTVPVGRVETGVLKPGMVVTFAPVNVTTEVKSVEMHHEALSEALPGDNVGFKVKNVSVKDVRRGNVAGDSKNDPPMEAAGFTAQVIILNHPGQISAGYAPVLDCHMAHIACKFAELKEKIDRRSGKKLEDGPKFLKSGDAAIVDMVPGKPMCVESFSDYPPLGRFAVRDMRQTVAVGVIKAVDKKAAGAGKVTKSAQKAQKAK
UniProt P07477: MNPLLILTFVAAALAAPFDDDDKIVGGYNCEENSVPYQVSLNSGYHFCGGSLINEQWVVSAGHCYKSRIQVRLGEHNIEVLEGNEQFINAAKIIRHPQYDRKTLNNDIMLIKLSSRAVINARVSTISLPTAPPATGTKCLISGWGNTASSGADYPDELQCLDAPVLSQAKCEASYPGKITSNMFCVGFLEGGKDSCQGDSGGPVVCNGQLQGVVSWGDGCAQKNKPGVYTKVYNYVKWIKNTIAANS
UniProt P68363: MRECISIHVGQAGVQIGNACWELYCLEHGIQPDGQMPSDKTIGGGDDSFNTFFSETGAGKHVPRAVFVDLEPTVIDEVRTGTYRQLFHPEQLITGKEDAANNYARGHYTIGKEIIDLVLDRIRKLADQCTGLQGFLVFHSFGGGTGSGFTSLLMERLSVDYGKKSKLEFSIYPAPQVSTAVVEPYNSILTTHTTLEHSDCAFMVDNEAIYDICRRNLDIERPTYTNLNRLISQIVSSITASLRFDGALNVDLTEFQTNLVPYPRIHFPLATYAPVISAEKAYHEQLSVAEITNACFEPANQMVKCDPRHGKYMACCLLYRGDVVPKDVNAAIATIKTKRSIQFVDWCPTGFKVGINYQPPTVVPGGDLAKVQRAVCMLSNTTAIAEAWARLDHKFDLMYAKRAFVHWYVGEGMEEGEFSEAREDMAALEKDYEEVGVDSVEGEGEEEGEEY
UniProt Q9BQE3: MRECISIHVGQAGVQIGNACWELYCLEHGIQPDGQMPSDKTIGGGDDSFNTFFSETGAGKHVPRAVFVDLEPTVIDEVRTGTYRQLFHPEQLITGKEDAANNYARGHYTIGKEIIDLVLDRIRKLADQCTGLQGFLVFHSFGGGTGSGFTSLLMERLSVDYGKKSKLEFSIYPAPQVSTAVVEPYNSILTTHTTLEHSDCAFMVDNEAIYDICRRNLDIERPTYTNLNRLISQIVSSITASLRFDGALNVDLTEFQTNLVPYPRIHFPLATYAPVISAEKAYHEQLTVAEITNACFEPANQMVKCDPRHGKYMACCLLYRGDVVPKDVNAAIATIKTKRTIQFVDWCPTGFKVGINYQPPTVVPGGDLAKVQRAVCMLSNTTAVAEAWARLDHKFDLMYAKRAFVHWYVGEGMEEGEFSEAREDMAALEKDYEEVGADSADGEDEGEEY

B1: Keratin, type I cytoskeletal 9 (protein, UniProt P35527 1-623)
chain: MSCRQFSSSYLSRSGGGGGGGLGSGGSIRSSYSRFSSSGGGGGGGRFSSSSGYGGGSSRVCGRGGGGSFGYSYGGGSGGGFSASSLGGGFGGGSRGFGGASGGGYSSSGGFGGGFGGGSGGGFGGGYGSGFGGFGGFGGGAGGGDGGILTANEKSTMQELNSRLASYLDKVQALEEANNDLENKIQDWYDKKGPAAIQKNYSPYYNTIDDLKDQIVDLTVGNNKTLLDIDNTRMTLDDFRIKFEMEQNLRQGVDADINGLRQVLDNLTMEKSDLEMQYETLQEELMALKKNHKEEMSQLTGQNSGDVNVEINVAPGKDLTKTLNDMRQEYEQLIAKNRKDIENQYETQITQIEHEVSSSGQEVQSSAKEVTQLRHGVQELEIELQSQLSKKAALEKSLEDTKNRYCGQLQMIQEQISNLEAQITDVRQEIECQNQEYSLLLSIKMRLEKEIETYHNLLEGGQEDFESSGAGKIGLGGRGGSGGSYGRGSRGGSGGSYGGGGSGGGYGGGSGSRGGSGGSYGGGSGSGGGSGGGYGGGSGGGHSGGSGGGHSGGSGGNYGGGSGSGGGSGGGYGGGSGSRGGSGGSHGGGSGFGGESGGSYGGGEEASGSGGGYGGGSGKSSHS
B2: Phosphate carrier protein, mitochondrial (SLC25A3), found with NLRP3 in HEK293T cells (protein, UniProt Q00325 50-362)
chain: AVEEQYSCDYGSGRFFILCGLGGIISCGTTHTALVPLDLVKCRMQVDPQKYKGIFNGFSVTLKEDGVRGLAKGWAPTFLGYSMQGLCKFGFYEVFKVLYSNMLGEENTYLWRTSLYLAASASAEFFADIALAPMEAAKVRIQTQPGYANTLRDAAPKMYKEEGLKAFYKGVAPLWMRQIPYTMMKFACFERTVEALYKFVVPKPRSECSKPEQLVVTFVAGYIAGVFCAIVSHPADSVVSVLNKEKGSSASLVLKRLGFKGVWKGLFARIIMIGTLTALQWFIYDSVKVYFRLPRPPPPEMPESLKKKLGLTQ

molecular target: NACHT, LRR and PYD domains-containing protein 3 (NLRP3), bait of the mass spectrometry screen (human) (UniProt Q96P20); experiment: affinity purification with mass spectrometry; proteins interacting with NLRP3 in HEK293T cells screened by mass spectrometry (schematic in Fig. 1A)

Row | binding | Molecule
1 | binds | Elongation factor 1-alpha 1 (EEF1A1), found with NLRP3 in HEK293T cells (from UniProt P68104 1-462)
2 | binds | Elongation factor 1-alpha 2 (EEF1A2), found with NLRP3 in HEK293T cells (from UniProt Q05639 1-463)
3 | binds | Glyceraldehyde-3-phosphate dehydrogenase (from UniProt P04406 1-335) (enzyme)
4 | binds | Heat shock 70 kDa protein 1-like (from UniProt P34931 1-641)
5 | binds | Heat shock 70 kDa protein 1A (from UniProt P0DMV8 1-641)
6 | binds | Heat shock cognate 71 kDa protein (from UniProt P11142 1-646)
7 | binds | Heterogeneous nuclear ribonucleoprotein H (from UniProt P31943 1-449)
8 | binds | Keratin, type I cytoskeletal 10 (from UniProt P13645 1-584)
9 | binds | Keratin, type II cytoskeletal 1 (from UniProt P04264 1-644)
10 | binds | Keratin, type II cytoskeletal 2 epidermal (from UniProt P35908 1-639)
11 | binds | Keratin, type II cytoskeletal 5 (from UniProt P13647 1-590)
12 | binds | Putative elongation factor 1-alpha-like 3 (from UniProt Q5VTE0 1-462)
13 | binds | Stress-70 protein, mitochondrial (from UniProt P38646 47-679)
14 | binds | Transmembrane protease serine 13 (from UniProt Q9BYE2 1-586) (enzyme)
15 | binds | Trypsin-1 (from UniProt P07477) (enzyme)
16 | binds | Tubulin alpha-1B chain (from UniProt P68363 1-451)
17 | binds | Tubulin alpha-1C chain (from UniProt Q9BQE3 1-449)
18 | binds | Tubulin beta chain (from UniProt P07437 1-444)

molecular target: NACHT, LRR and PYD domains-containing protein 3 (NLRP3), bait of the mass spectrometry screen (human) (UniProt Q96P20); experiment: as above; remark: another data set of the same source

Row | binding | Molecule
19 | binds | B1
20 | binds | B2

These are yes or no findings as the source states them, for the method shown. In cells and extracts the contact can be indirect. These calls come from enrichment with a bait or labelling near it, and not all partners need be listed.
